Laboratory results reported in paper PMC7862700.
The entries are a selection whose mix differs from that of the whole data set. At the low end of the ranking, values are background and their order means little.

Protein sequences, listed by entry. Tags and fused reporters are not part of them. Lines headed by an entry give the natural chain unless they say otherwise; changes in a name come on top.
UniProt Q99607: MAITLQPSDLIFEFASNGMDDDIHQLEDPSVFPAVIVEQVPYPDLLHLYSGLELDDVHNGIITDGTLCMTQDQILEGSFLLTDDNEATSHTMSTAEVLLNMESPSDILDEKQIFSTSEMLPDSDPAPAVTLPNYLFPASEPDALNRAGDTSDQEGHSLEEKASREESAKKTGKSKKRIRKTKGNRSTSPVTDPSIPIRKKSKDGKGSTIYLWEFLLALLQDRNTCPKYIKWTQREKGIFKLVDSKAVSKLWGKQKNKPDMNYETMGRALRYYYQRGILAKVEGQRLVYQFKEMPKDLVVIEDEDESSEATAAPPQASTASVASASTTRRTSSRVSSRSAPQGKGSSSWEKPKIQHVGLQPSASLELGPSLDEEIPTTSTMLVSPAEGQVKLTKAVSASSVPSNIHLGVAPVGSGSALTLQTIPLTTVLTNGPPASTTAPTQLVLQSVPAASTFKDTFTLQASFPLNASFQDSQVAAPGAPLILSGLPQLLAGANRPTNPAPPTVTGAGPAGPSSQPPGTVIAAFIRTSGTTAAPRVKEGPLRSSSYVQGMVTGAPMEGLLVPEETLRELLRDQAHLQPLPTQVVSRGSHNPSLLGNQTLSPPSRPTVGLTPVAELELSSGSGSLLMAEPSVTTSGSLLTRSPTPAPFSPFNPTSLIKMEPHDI

biological target: T1, FLI1 (UniProt Q01543); experiment: DAPPL (digital affinity profiling via proximity ligation, sequencing); conditions: 10 mM Tris-HCl pH 7.5, 50 mM NaCl, 1 mM DTT, 4% glycerol, room temperature, 30 min; GST-TFs on glutathione beads, 16-mer random dsDNA library, 0.1% …; high values mean tight binding; double strand, one strand shown; scale: fold enrichment (6-mer frequency, TF over GST control)
T1 sequence: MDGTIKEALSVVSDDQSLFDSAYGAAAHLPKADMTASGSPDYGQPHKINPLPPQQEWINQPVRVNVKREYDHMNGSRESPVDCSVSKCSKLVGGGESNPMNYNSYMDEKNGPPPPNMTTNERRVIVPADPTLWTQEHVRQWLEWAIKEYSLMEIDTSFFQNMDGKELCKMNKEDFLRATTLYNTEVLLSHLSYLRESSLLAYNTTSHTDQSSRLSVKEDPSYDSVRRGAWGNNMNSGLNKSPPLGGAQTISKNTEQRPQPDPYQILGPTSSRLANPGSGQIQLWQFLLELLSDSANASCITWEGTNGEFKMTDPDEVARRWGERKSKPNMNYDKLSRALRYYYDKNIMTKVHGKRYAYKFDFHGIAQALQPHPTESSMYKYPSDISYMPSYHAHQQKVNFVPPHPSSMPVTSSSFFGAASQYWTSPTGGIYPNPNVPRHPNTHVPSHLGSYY

**Q.** Which binding signal does the source give for GACTTC here?
**A.** The binding signal was 2.39.

**Q.** CTTCGT was tested. Which binding signal did it give?
**A.** Its binding signal is 1.34.

**Q.** TTATTC was tested. Which binding signal did it give?
**A.** Its binding signal is 1.48.

**Q.** For TTCGCC, which binding signal is on record?
**A.** Its binding signal is 1.26.

**Q.** Which binding signal does the source give for TAACGG here?
**A.** The binding signal was 1.1.

**Q.** Which binding signal does the source give for CATTAA here?
**A.** The binding signal was 0.974.

**Q.** AATACT was tested. Which binding signal did it give?
**A.** Its binding signal is 1.16.

**Q.** How did the binding signal turn out when TCCGGT was run?
**A.** The binding signal was 3.61.

**Q.** Which binding signal does the source give for CTAACA here?
**A.** Its binding signal is 1.28.

**Q.** For CCCAAA, which binding signal is on record?
**A.** Its binding signal is 0.994.

**Q.** Which binding signal does the source give for ATGTGG here?
**A.** The binding signal was 1.08.

**Q.** With CCCGTA as the sequence, how does the binding signal read?
**A.** The binding signal was 1.14.

**Q.** Which binding signal does the source give for TGAAAT here?
**A.** The binding signal was 0.935.

**Q.** How did the binding signal turn out when CAATGC was run?
**A.** Its binding signal is 1.21.

**Q.** Which binding signal does the source give for TCTCTT here?
**A.** The binding signal was 1.52.

**Q.** For AACAAC, which binding signal is on record?
**A.** Its binding signal is 1.24.

**Q.** How did the binding signal turn out when TCTTGG was run?
**A.** Its binding signal is 1.44.

**Q.** Which binding signal does the source give for ACAGCT here?
**A.** Its binding signal is 1.15.

**Q.** How did the binding signal turn out when TTTGGG was run?
**A.** The binding signal was 1.27.

**Q.** For ATCCAC, which binding signal is on record?
**A.** Its binding signal is 1.23.

**Q.** GTTGAC was tested. Which binding signal did it give?
**A.** The binding signal was 1.11.

**Q.** For CATAAC, which binding signal is on record?
**A.** The binding signal was 1.09.

**Q.** TCAAAG was tested. Which binding signal did it give?
**A.** The binding signal was 1.08.

**Q.** With ACTGGA as the sequence, how does the binding signal read?
**A.** Its binding signal is 0.983.

**Q.** With AAACTC as the sequence, how does the binding signal read?
**A.** The binding signal was 1.29.

**Q.** Which binding signal does the source give for TGTCTA here?
**A.** Its binding signal is 1.2.

**Q.** How did the binding signal turn out when TTCTGG was run?
**A.** The binding signal was 1.36.

**Q.** Which binding signal does the source give for AGCTGC here?
**A.** Its binding signal is 1.16.

**Q.** TAGGAT was tested. Which binding signal did it give?
**A.** Its binding signal is 0.979.

**Q.** GATGTT was tested. Which binding signal did it give?
**A.** Its binding signal is 1.28.

**Q.** With AATTAC as the sequence, how does the binding signal read?
**A.** The binding signal was 1.24.

**Q.** With GTCCAT as the sequence, how does the binding signal read?
**A.** Its binding signal is 1.22.

**Q.** How did the binding signal turn out when AAAAAC was run?
**A.** The binding signal was 1.31.

**Q.** For TGAATG, which binding signal is on record?
**A.** The binding signal was 1.16.

**Q.** Which binding signal does the source give for GTATAA here?
**A.** Its binding signal is 1.02.

**Q.** ACTATC was tested. Which binding signal did it give?
**A.** The binding signal was 1.15.

**Q.** With TTATAA as the sequence, how does the binding signal read?
**A.** Its binding signal is 1.21.

**Q.** TATGGG was tested. Which binding signal did it give?
**A.** The binding signal was 1.23.

**Q.** Which binding signal does the source give for CGAATC here?
**A.** The binding signal was 1.

**Q.** ATAGGC was tested. Which binding signal did it give?
**A.** Its binding signal is 0.946.

biological target: ELF4 (UniProt Q99607); experiment: as above; conditions: 10 mM Tris-HCl pH 7.5, 50 mM NaCl, 1 mM DTT, 4% glycerol, room temperature, 30 min; GST-TFs on glutathione beads, 16-mer random dsDNA library, 0.1% …; high values mean tight binding; double strand, one strand shown; scale: fold enrichment (6-mer frequency, TF over GST control)

**Q.** For GACTTC, which binding signal is on record?
**A.** The binding signal was 2.28.

**Q.** With CTTCGT as the sequence, how does the binding signal read?
**A.** Its binding signal is 1.29.

**Q.** Which binding signal does the source give for TTATTC here?
**A.** The binding signal was 1.41.

**Q.** Which binding signal does the source give for TTCGCC here?
**A.** The binding signal was 1.05.

**Q.** TAACGG was tested. Which binding signal did it give?
**A.** Its binding signal is 0.998.

**Q.** Which binding signal does the source give for CATTAA here?
**A.** The binding signal was 1.07.

**Q.** For AATACT, which binding signal is on record?
**A.** Its binding signal is 1.16.

**Q.** With TCCGGT as the sequence, how does the binding signal read?
**A.** The binding signal was 3.32.

**Q.** CTAACA was tested. Which binding signal did it give?
**A.** Its binding signal is 1.2.

**Q.** With CCCAAA as the sequence, how does the binding signal read?
**A.** The binding signal was 1.17.

**Q.** CCCGTA was tested. Which binding signal did it give?
**A.** Its binding signal is 1.16.

**Q.** For TGAAAT, which binding signal is on record?
**A.** Its binding signal is 0.989.

**Q.** With CAATGC as the sequence, how does the binding signal read?
**A.** The binding signal was 1.3.

**Q.** With TCTTGG as the sequence, how does the binding signal read?
**A.** The binding signal was 1.39.

**Q.** How did the binding signal turn out when ACAGCT was run?
**A.** The binding signal was 1.15.

**Q.** For TTTGGG, which binding signal is on record?
**A.** The binding signal was 1.41.

**Q.** ATCCAC was tested. Which binding signal did it give?
**A.** The binding signal was 1.22.

**Q.** Which binding signal does the source give for GTTGAC here?
**A.** The binding signal was 1.15.

**Q.** For CATAAC, which binding signal is on record?
**A.** The binding signal was 1.1.

**Q.** With TCAAAG as the sequence, how does the binding signal read?
**A.** Its binding signal is 1.14.

**Q.** Which binding signal does the source give for ACTGGA here?
**A.** Its binding signal is 1.1.

**Q.** How did the binding signal turn out when AAACTC was run?
**A.** Its binding signal is 1.22.

**Q.** For TGTCTA, which binding signal is on record?
**A.** Its binding signal is 1.2.

**Q.** Which binding signal does the source give for TTCTGG here?
**A.** Its binding signal is 1.29.

**Q.** With AGCTGC as the sequence, how does the binding signal read?
**A.** The binding signal was 1.16.

**Q.** How did the binding signal turn out when TAGGAT was run?
**A.** Its binding signal is 1.

**Q.** With GTCCAT as the sequence, how does the binding signal read?
**A.** Its binding signal is 1.1.

**Q.** With TGAATG as the sequence, how does the binding signal read?
**A.** The binding signal was 1.16.

**Q.** For GTATAA, which binding signal is on record?
**A.** The binding signal was 1.05.

**Q.** Which binding signal does the source give for ACTATC here?
**A.** Its binding signal is 1.24.

**Q.** Which binding signal does the source give for TTATAA here?
**A.** Its binding signal is 1.11.

**Q.** How did the binding signal turn out when CGAATC was run?
**A.** Its binding signal is 0.932.

**Q.** Which binding signal does the source give for ATAGGC here?
**A.** The binding signal was 0.959.

biological target: T2, ETV2 (UniProt O00321); experiment: as above; conditions: 10 mM Tris-HCl pH 7.5, 50 mM NaCl, 1 mM DTT, 4% glycerol, room temperature, 30 min; GST-TFs on glutathione beads, 16-mer random dsDNA library, 0.1% …; high values mean tight binding; double strand, one strand shown; scale: fold enrichment (6-mer frequency, TF over GST control)
T2 sequence: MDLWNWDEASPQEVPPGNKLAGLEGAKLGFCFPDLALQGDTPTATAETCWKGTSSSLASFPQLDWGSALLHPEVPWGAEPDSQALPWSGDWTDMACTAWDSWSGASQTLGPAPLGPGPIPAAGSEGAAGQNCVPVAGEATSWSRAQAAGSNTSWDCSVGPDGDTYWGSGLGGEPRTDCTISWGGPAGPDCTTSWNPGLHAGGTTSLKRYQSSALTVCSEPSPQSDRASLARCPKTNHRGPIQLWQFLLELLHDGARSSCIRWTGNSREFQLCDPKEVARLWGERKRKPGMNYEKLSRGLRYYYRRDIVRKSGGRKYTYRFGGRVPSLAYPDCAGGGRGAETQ

**Q.** Which binding signal does the source give for CTAACA here?
**A.** The binding signal was 1.21.

**Q.** Which binding signal does the source give for CGAATC here?
**A.** Its binding signal is 0.986.

**Q.** For ATAGGC, which binding signal is on record?
**A.** The binding signal was 0.98.
